# Reference: PubChem BioAssay AID743454 (Peter MacCallum Cancer Centre, 2014)
# Purpose: 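Genes whose loss kills vorinostat-resistant colon cancer cells under vorinostat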 (primary screen)
# Cell system: human HCT116-VR colon cancer cells, selected for vorinostat resistance
# Reagents: siRNA pool against human genes, 40 nM siRNA pool
# Time to read-out: vorinostat for 24 h, read-out about 72 h after transfection
# Conditions: vorinostat at 2.5 µM final
# Measurement: 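Two measures, CellTiter-Fluor viability and luminescent caspase 3/7 activity, each as fold change against same-plate mock wells, mean of duplicates, then screen-wide robust z-score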
# Reading the numbers: viability robust z-score: higher = more viable cells than screen typical; caspase robust z-score: higher = more caspase 3/7 activity than screen typical
# Call rule: 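Hits are knock-downs in viability class RV1/RV2 or caspase class CA1/CA2, excluding ones that killed cells in the no-drug cell-count arm; hits then retested with single siRNAs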
# The deposit covers about 18,000 reagents; this is an unselected part. 450 of them (2.5%) were called active. 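Single biological run; no consistent viability z cut-off exists, so the class columns, not z-scores, define the calls.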 Unmarked entries are inactive.
gene symbol,viability hit class,caspase hit class,viability robust z-score,caspase robust z-score
TMEM147,no change,no change,-0.73,-0.92
SRSF6,no change,no change,-1.75,-0.97
GZMA,no change,no change,0.4,-0.7
PRPF40B,no change,no change,-0.84,0.2
ABCB6,no change,no change,0.82,0.01
HMBS,no change,no change,-0.94,0.91
SNX29P1,no change,no change,-0.2,-0.78
ADIRF,no change,no change,-2.2,4.39
CCDC60,no change,no change,0.2,0.05
CPLANE2,no change,no change,-0.5,1.58
RASSF3,no change,no change,0.3,1
PITPNA,no change,no change,-0.14,-0.62
ZNF878,no change,no change,0.5,0.55
TMEM220,no change,no change,-1.02,3.68
G0S2,no change,no change,-0.18,1.21
NMD3,no change,no change,-1.06,0.18
ATP5PD,no change,no change,-0.06,-0.9
LCP2,no change,no change,-0.2,-0.7
TRNP1,no change,no change,-0.2,0.5
SPINK13,no change,no change,0.12,-0.02
GGT2P,no change,no change,-0.06,-0.72
CCAR2,no change,no change,-0.84,2.14
ERBB3,no change,no change,-0.51,1.77
OR11H4,no change,no change,-0.23,0.76

Next part; the last 2 above are carried over.
gene symbol,viability hit class,caspase hit class,viability robust z-score,caspase robust z-score
ERBB3,no change,no change,-0.51,1.77
OR11H4,no change,no change,-0.23,0.76
LTO1,no change,no change,1.42,-0.92
KIF9,no change,no change,0.23,-0.43
RASSF10,no change,no change,0.94,0.2
CCAR1,no change,no change,0.01,-0.98
ADAMTSL1,no change,no change,-0.02,0.21
CRABP1,no change,no change,-2.71,3.2
USP6NL,no change,no change,1.32,0.32
ACSM2B,no change,no change,0.88,-1
RXRG,no change,no change,0.19,-0.37
C11orf71,no change,no change,-2.24,-0.52
VDAC3,no change,no change,0.86,-0.56
MPHOSPH6,no change,no change,0.6,-0.23
GOLGA7,no change,no change,0.7,-0.9
TPSAB1,no change,no change,1.69,0.27
ZNF232,no change,no change,-0.08,0.52
